# According to the supplement of paper PMC9254222:
# In all, about 1,100 compounds were measured (“Renilla luciferase signal (cell health) relative to plate median”: median about 0.97, highest 2% from about 1.6 on). The list shows a part of the results, in another mix than the full data.
# System: HEK293T (UBE3A T485A transfected, BAR Wnt reporter)
# Experiment: Renilla luciferase signal (cell health) relative to plate median (fold (linear ratio)); higher = higher Renilla signal
# Details: 24 h
# Outline: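 Each value averages four biological replicates in HEK293T cells grown at 4500 cells/well in DMEM with 10% FBS at 37°C and 5% CO2. The cells were transfected with a BAR firefly luciferase Wnt reporter, TK-Renilla and an expression plasmid, then four hours later robotically treated with the chemicals at 0.01–100 uM for 24 h. Dual-Glo luciferase signals were median-centred per plate, with the firefly/Renilla ratio reported as Wnt activity and raw Renilla as cell health.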
smiles,measurement,setting,value
Cl[C@H]1[C@H](Cl)[C@@H](Cl)[C@H](Cl)[C@@H](Cl)[C@@H]1Cl [beta-Hexachlorocyclohexane],Renilla luciferase signal,concentration: 0.1 uM,1.04
same,Renilla luciferase signal,concentration: 1 uM,1.14
same,Renilla luciferase signal,concentration: 10 uM,0.998
same,Renilla luciferase signal,concentration: 100 uM,1.43
Cc1ccccc1COC1CC2(C(C)C)CCC1(C)O2 (stereo not given) [Cinmethylin],Renilla luciferase signal,concentration: 0.01 uM,1.14
same,Renilla luciferase signal,concentration: 0.1 uM,1.04
same,Renilla luciferase signal,concentration: 1 uM,1.02
same,Renilla luciferase signal,concentration: 10 uM,1.09
same,Renilla luciferase signal,concentration: 100 uM,1.56
C=CC(N)=O [Acrylamide],Renilla luciferase signal,concentration: 0.1 uM,1.26
same,Renilla luciferase signal,concentration: 1 uM,1.3
same,Renilla luciferase signal,concentration: 10 uM,1.31
same,Renilla luciferase signal,concentration: 100 uM,1.36
CCCCc1ccccc1 [Butylbenzene],Renilla luciferase signal,concentration: 0.1 uM,0.889
same,Renilla luciferase signal,concentration: 1 uM,0.772
same,Renilla luciferase signal,concentration: 10 uM,0.848
same,Renilla luciferase signal,concentration: 100 uM,1.19
CCc1ccc(C(=O)NN(C(=O)c2cc(C)cc(C)c2)C(C)(C)C)cc1 [Tebufenozide],Renilla luciferase signal,concentration: 0.01 uM,0.917
same,Renilla luciferase signal,concentration: 0.1 uM,0.938
same,Renilla luciferase signal,concentration: 1 uM,0.914
same,Renilla luciferase signal,concentration: 10 uM,0.89
same,Renilla luciferase signal,concentration: 100 uM,0.94
"Cc1ccc(O)c(C)c1 [2,4-Dimethylphenol]",Renilla luciferase signal,concentration: 0.1 uM,1.02
same,Renilla luciferase signal,concentration: 1 uM,1.02
same,Renilla luciferase signal,concentration: 10 uM,0.947
same,Renilla luciferase signal,concentration: 100 uM,1.21
c1ccc(C2CO2)cc1 (stereo not given) [Styrene oxide],Renilla luciferase signal,concentration: 0.1 uM,0.989
same,Renilla luciferase signal,concentration: 1 uM,1.09
same,Renilla luciferase signal,concentration: 10 uM,1.2
same,Renilla luciferase signal,concentration: 100 uM,1.31
CN1CSC(=S)N(C)C1 [Dazomet],Renilla luciferase signal,concentration: 0.01 uM,0.995
same,Renilla luciferase signal,concentration: 0.1 uM,0.805
same,Renilla luciferase signal,concentration: 1 uM,0.888
same,Renilla luciferase signal,concentration: 10 uM,0.954
same,Renilla luciferase signal,concentration: 100 uM,0.553

# In a second layout: entries from further up
smiles	measurement	setting	value
CCCCc1ccccc1 [Butylbenzene]	Renilla luciferase signal	concentration: 100 uM	1.19
CCc1ccc(C(=O)NN(C(=O)c2cc(C)cc(C)c2)C(C)(C)C)cc1 [Tebufenozide]	Renilla luciferase signal	concentration: 0.01 uM	0.917
same	Renilla luciferase signal	concentration: 0.1 uM	0.938
same	Renilla luciferase signal	concentration: 1 uM	0.914
same	Renilla luciferase signal	concentration: 10 uM	0.89
same	Renilla luciferase signal	concentration: 100 uM	0.94
